Reference: PubChem BioAssay AID493014 (National Center for Advancing Translational Sciences (NCATS), 2011)
The other results are listed elsewhere or left out. These are further read-outs of the screen, such as a control signal, another cell line or another target. No call is given for them. The list favours compounds with an active or inconclusive main result. Potencies come from curve fits of mixed quality, noted in brackets.

Assay: qHTS Assay to Find Inhibitors of Chronic Active B-Cell Receptor Signaling
Details: ABC-DLBCL IkBa-CBG/CBR reporter, luminescence ratio (green luciferase fused to IkBa over red control in TMD8 lymphoma cells), 4 h
Summary of the method: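 TMD8 human ABC-DLBCL cells with doxycycline-inducible IκBα–green luciferase fusion and unfused red luciferase, in 0.5% FBS medium; compounds up to 46 uM, 4 h at 37C. Green/red luminescence ratio, filter-overlap corrected, fitted to concentration-response curves.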

[1] = measured here: CBR red luminescence, cell number
[2] = measured here: IkBa-CBG green luminescence

Row | Compound | AC50 [1] | AC50 [2]
1 | O=c1oc(-c2cccs2)nc2ccc(Cl)cc12 | 2.82 µM [falling, full curve, poor fit] | 
2 | Cc1ccnc(NC(=O)CCC(=O)c2cccs2)c1 | 25.9 µM [falling, single point] | 
3 | CC(NC(=O)c1cc(-c2ccc(Br)cc2)on1)c1ccccc1 (stereo not given) | 35.5 µM [rising, partial curve, poor fit] | 
4 | COc1ccccc1C(=O)NNC(=O)C(=O)Nc1ccc(C)c(Cl)c1 | 14.1 µM [falling, partial curve] | 
5 | CC(=O)c1ccc(NC(=O)c2cnsn2)cc1 | 7.94 µM [falling, partial curve] | 
6 | O=C(COC(=O)CNC(=O)c1cccc(OC(F)F)c1)NCc1ccc2c(c1)OCO2 | 10.3 µM [rising, single point] | 
7 | C=CCOC(=O)C1=C[C@H](c2coc3ccccc3c2=O)[C@@H](CCCO)[C@H](OCC)O1 | 3.98 µM [rising, partial curve, poor fit] | 
8 | CCOC(=O)c1c(C)c(C(=O)N2CCN(c3cccc(Cl)c3)CC2)c(C)n1C | 17.8 µM [falling, single point] | 
9 | Clc1ccc(-c2cn3c(n2)CCC3)cc1 | 3.55 µM [rising, partial curve, poor fit] | 
10 | COc1c(N2CCN(C(=S)NCc3ccccc3)C(C)C2)c(F)cc2c(=O)c(C(=O)O)cn(C3CC3)c12 (stereo not given) | 15.8 µM [rising, single point] | 
11 | CCn1c(SCC(=O)c2ccc(Cl)cc2)nnc1C(C)C |  | 35.5 µM [falling, partial curve, poor fit]
12 | CCOC(=O)c1c(-c2ccc(C)o2)csc1N | 35.5 µM [falling, partial curve, poor fit] | 
13 | CC(C)c1ccc2c(c1)C1(NN=C(c3ccccc3)S1)C(=O)N2 (stereo not given) | 32.6 µM [falling, single point] | 
14 | CC1=C(C(=O)NCc2ccccc2)C(c2ccc(C)o2)n2ncnc2N1 (stereo not given) | 35.5 µM [falling, single point] | 
15 | COc1ccc(COc2cc(-c3cccc(OC)c3)nc3ccc(NC(=O)c4ccccc4)cc23)cc1 |  | 20.6 µM [falling, single point]
16 | CCN=C1S/C(=C\c2ccc(-c3cccc(C(=O)O)c3)o2)C(=O)N1CC | 10 µM [falling, partial curve] | 
17 | NC(=O)c1ccc(SCC(=O)NC2CCCCC2)c([N+](=O)[O-])c1 | 31.6 µM [rising, single point] | 
18 | CCc1ccc(-c2nn(Cc3ccccc3)cc2C(=O)NCC2CCCO2)cc1 (stereo not given) | 25.9 µM [rising, single point] | 
19 | Cc1cc(C)c2nc(NC(=O)C3CCCO3)sc2c1 (stereo not given) | 6.51 µM [rising, single point] | 
20 | COc1ccc(S(=O)(=O)N2CCOCC2)cc1NC(=O)CSc1ncnc2ccccc12 | 5.01 µM [falling, partial curve, poor fit] | 
21 | COc1ccc(C(=O)C2CCCN(Cc3nc4ccccc4nc3C)C2)cc1OC (stereo not given) | 0.631 µM [rising, full curve] | 
22 | CCOc1ccc(Cc2nnc(SCC(=O)c3ccc(OC)cc3)o2)cc1 | 3.55 µM [rising, partial curve, poor fit] | 

Row | Compound | AC50 [1] | AC50 [2]
23 | CNC(=O)c1ccsc1NC(=O)c1ccc(Cl)s1 | 8.2 µM [falling, partial curve] | 
24 | O=C(c1c(F)c(F)c(F)c(F)c1F)N1CCN(c2cccc(C(F)(F)F)c2)CC1 | 29.1 µM [rising, single point] | 29.1 µM [falling, single point]
25 | O=c1cc(-c2ccccc2)n(S(=O)(=O)c2ccccc2)o1 | 7.31 µM [falling, single point] | 
26 | CCN(C(=O)COC(=O)/C=C/c1cnc2ccccc2n1)c1ccccc1 | 5.62 µM [falling, single point] | 
27 | O=C(Nc1ccc2ccccc2c1)c1ccc(NS(=O)(=O)c2ccc(Br)s2)cc1 | 13 µM [falling, partial curve] | 
28 | CC[C@H](C)Cc1cn([C@@H](CCCN=C(N)N)C(=O)NCCCCCCCCCCC(=O)N2CCNCC2)nn1 | 2.31 µM [rising, single point] | 
29 | COc1ccc(NC(=S)NC2CCCCC2)cn1 | 35.5 µM [falling, single point] | 
30 | Cc1ccccc1OCCC(=O)NNC(=O)COc1cccc(F)c1 | 0.461 µM [rising, full curve, poor fit] | 
31 | O=C(N1CCC(n2nc(-c3ccccc3)oc2=O)CC1)C1(c2ccccc2)CC1 | 22.4 µM [falling, single point] | 
32 | O=C1c2ccccc2C(=O)N1CCCc1cn(C[C@H]2CC[C@@H]([C@@H]3CC[C@H](Cn4cc(CCCN5C(=O)c6ccccc6C5=O)nn4)O3)O2)nn1 | 1.41 µM [rising, partial curve, poor fit] | 
33 | O=C1CN(C(=O)/C=C/c2ccccc2F)c2ccccc2N1 | 31.6 µM [falling, single point] | 
34 | Cc1ccccc1N1C(=O)[C@@H]2Cc3ccccc3CN2C1=O | 0.164 µM [falling, full curve, poor fit] | 
35 | CC(/C=N/NC(=O)c1cc(-c2ccc3ccccc3c2)n[nH]1)=C\c1ccco1 | 2.59 µM [rising, full curve, poor fit] | 
36 | Cc1nonc1C1CCCN1Cc1cn[nH]c1-c1ccc(-c2ccccc2)cc1 (stereo not given) | 35.5 µM [rising, single point] | 
37 | COc1ccc(OC)c(N(CC(=O)NC2CC2)S(=O)(=O)c2ccc(C)cc2)c1 | 25.1 µM [falling, single point] | 
38 | COc1ccc(/C=N/NC(=O)c2ccccc2[N+](=O)[O-])cc1CN1CCc2cc(OC)c(OC)cc2C1C (stereo not given) | 10 µM [falling, partial curve, poor fit] | 
39 | COc1cc(OC)c(-c2nn3c(-c4cccnc4)nnc3s2)cc1OC | 3.16 µM [rising, full curve, poor fit] | 
40 | CCOc1ccccc1C(=O)Nc1cc(C)ccc1NC(=O)c1ccco1 | 35.5 µM [falling, partial curve, poor fit] | 
41 | CCN(CC)S(=O)(=O)c1cccc(NC(=O)COC(=O)CNC(=O)c2cccc(F)c2)c1 | 35.5 µM [rising, single point] | 
42 | CCOc1cc(N2CCOCC2)c(OCC)cc1NC(=O)CN1C(=O)NC2(CCCCCCC2)C1=O | 4.47 µM [rising, full curve] | 
43 | CCn1cc(C2=NC(CCSC)CO2)c2ccccc21 (stereo not given) | 2.51 µM [rising, full curve] | 
44 | CC(=C/c1ccco1)/C=N/N1CCN(c2ccccc2)CC1 | 2.24 µM [rising, partial curve, poor fit] | 

Row | Compound | AC50 [1] | AC50 [2]
45 | C=CCNC(=S)NNC(=O)c1ccccc1 | 0.00411 µM [falling, full curve, poor fit] | 
46 | CCCn1nc(NC(=O)c2cccs2)c2cc3cccc(C)c3nc21 | 22.4 µM [falling, single point] | 
47 | CC1(C)Cc2cccc(C(=O)NCc3ccco3)c2O1 | 10 µM [falling, partial curve, poor fit] | 
48 | Cc1ccccc1OCC(O)Cn1c(NCc2ccco2)nc2c1c(=O)[nH]c(=O)n2C (stereo not given) | 0.103 µM [rising, partial curve, poor fit] | 
49 | Nc1ccc(-c2nc3c(ccc4ccccc43)[nH]2)cc1 | 10 µM [falling, partial curve] | 
50 | CC(C)C(NC(=O)c1ccccc1)C(=O)OCC(=O)N1CCCC1 (stereo not given) | 29.1 µM [rising, partial curve, poor fit] | 
51 | COC(=O)c1ccc(CSc2nc3ccccc3c(=O)n2-c2ccccc2)o1 | 23.1 µM [rising, partial curve, poor fit] | 
52 | O=C1/C(=C\c2ccc(Br)o2)SC(=Nc2ccccc2)N1c1ccccc1 | 12.6 µM [rising, partial curve, poor fit] | 
53 | c1ccc2c(c1)nc(N1CCN(C3CCCCC3)CC1)c1nnnn12 | 0.517 µM [falling, full curve, poor fit] | 
54 | CCOc1ccc(NC(=O)C(C)O)c(NS(=O)(=O)c2ccc(CCNC(C)=O)cc2)c1 (stereo not given) | 29.1 µM [rising, single point] | 
55 | Cc1ccc(-n2nc(C)c(/C=N/n3c(C)n[nH]c3=S)c2Cl)cc1 | 11.2 µM [rising, partial curve] | 
56 | CN(C)C(CNC(=O)c1ccc(Br)cc1)c1ccco1 (stereo not given) | 35.5 µM [rising, single point] | 
57 | Cc1ccc2[nH]cc(C(=O)CCl)c2c1 | 20.6 µM [falling, partial curve] | 
58 | CCOC(=O)C(Sc1n[nH]c(N)n1)c1ccccc1 (stereo not given) | 23.1 µM [rising, single point] | 
59 | CSCC[C@H](NC(=O)CCn1nnc2ccccc2c1=O)C(=O)O | 22.4 µM [falling, single point] | 
60 | O=C(NC(=S)N1CCN(C/C=C/c2ccccc2)CC1)c1ccc(F)cc1 |  | 12.6 µM [falling, partial curve, poor fit]
61 | Cc1c(Cl)sn(-c2ccc(Cl)cc2)c1=O | 35.5 µM [falling, single point] | 
62 | O=C1OC(c2ccccc2)=N/C1=C\N1CCCCC1 | 15.8 µM [rising, partial curve] | 
63 | CS(=O)(=O)c1ccccc1-c1nc(-c2ccc([N+](=O)[O-])cc2)no1 | 11.2 µM [rising, partial curve] | 
64 | COc1ccc(C(=O)NNC(=O)CCn2nnc(-c3ccc(Cl)cc3)n2)cc1OC | 20 µM [falling, single point] | 

Structural class: the compounds so far with a nitro group on carbon.
Row | Compound | AC50 [1] | AC50 [2]
17 | NC(=O)c1ccc(SCC(=O)NC2CCCCC2)c([N+](=O)[O-])c1 | 31.6 µM [rising, single point] | 
38 | COc1ccc(/C=N/NC(=O)c2ccccc2[N+](=O)[O-])cc1CN1CCc2cc(OC)c(OC)cc2C1C (stereo not given) | 10 µM [falling, partial curve, poor fit] | 
63 | CS(=O)(=O)c1ccccc1-c1nc(-c2ccc([N+](=O)[O-])cc2)no1 | 11.2 µM [rising, partial curve] | 
